Test results as given in article PMC6562422, “Huzhangoside A Suppresses Tumor Growth through Inhibition of Pyruvate Dehydrogenase Kinase Activity” (Cancers, 2019).
Results are given in words; binding and its absence hold for the method and conditions named. In cells and extracts the contact can be indirect. Some entries that bind do so weakly or less than the wild type.

The chains behind the UniProt entries cited, without tags or fusion partners. Residues count along the entry.
UniProt Q15118, residues 29-436: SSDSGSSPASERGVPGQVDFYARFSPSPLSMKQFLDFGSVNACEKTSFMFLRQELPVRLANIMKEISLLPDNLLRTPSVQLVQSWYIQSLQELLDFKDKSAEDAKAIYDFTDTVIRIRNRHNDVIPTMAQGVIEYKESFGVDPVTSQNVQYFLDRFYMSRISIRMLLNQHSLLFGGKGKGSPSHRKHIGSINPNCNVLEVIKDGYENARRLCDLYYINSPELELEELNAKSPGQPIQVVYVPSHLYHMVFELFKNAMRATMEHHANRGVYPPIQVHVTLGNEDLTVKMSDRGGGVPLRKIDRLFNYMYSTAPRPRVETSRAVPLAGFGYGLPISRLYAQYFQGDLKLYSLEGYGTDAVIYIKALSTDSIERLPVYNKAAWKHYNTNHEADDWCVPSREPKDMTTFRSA

Target: glutathione S-transferase (GST)-conjugated-PDHK1 (human) (UniProt Q15118)
Assay: pull-down; GST-PDHK1 from transfected HEK293T lysate held on Glutathione Sepharose 4B beads, washed; HEK293T whole cell lysate added with/without 500 uM Hu.A; western blot; only the target purified

B1: PDC E2 subunit (dihydrolipoamide acetyltransferase) (protein, UniProt P10515 87-647)
chain: SLPPHQKVPLPSLSPTMQAGTIARWEKKEGDKINEGDLIAEVETDKATVGFESLEECYMAKILVAEGTRDVPIGAIICITVGKPEDIEAFKNYTLDSSAAPTPQAAPAPTPAATASPPTPSAQAPGSSYPPHMQVLLPALSPTMTMGTVQRWEKKVGEKLSEGDLLAEIETDKATIGFEVQEEGYLAKILVPEGTRDVPLGTPLCIIVEKEADISAFADYRPTEVTDLKPQVPPPTPPPVAAVPPTPQPLAPTPSAPCPATPAGPKGRVFVSPLAKKLAVEKGIDLTQVKGTGPDGRITKKDIDSFVPSKVAPAPAAVVPPTGPGMAPVPTGVFTDIPISNIRRVIAQRLMQSKQTIPHYYLSIDVNMGEVLLVRKELNKILEGRSKISVNDFIIKASALACLKVPEANSSWMDTVIRQNHVVDVSVAVSTPAGLITPIVFNAHIKGVETIANDVVSLATKAREGKLQPHEFQGGTFTISNLGMFGIKNFSAIINPPQACILAIGASEDKLVPADNEKGFDVASMMSVTLSCDHRVVDGAVGAQWLAEFRKYLEKPITMLL
With B1 the binding was “binds”.
